Among all 31,000 sequences or so, about 1,400 (4.5%) were called active.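 How the source made its calls: active means median seed-adjusted z-score above 1 or below -1; inactive means the rest.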 This is one part of the list.

This assay can be described thus: Novel Modifiers of Survival Motor Neuron (SMN) Protein: Gene Identification via Genome-wide siRNA Screen.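 Further: luminescence tracks full-length SMN protein made from the SMN2 reporter.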 To be noted: HEK293T SMN2-luciferase reporter, siRNA knockdown, 72 h; actives lie on both sides. In short, it runs like this: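 Genome-wide siRNA screen (10418 genes, 3 siRNAs each, 1 pmol per well) by reverse transfection in HEK293T cells stably carrying an SMN2-luciferase reporter; luminescence after 72 hours, normalized to negative-control siRNA, log10-transformed, MAD-scored.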
For orientation: Reporter assays use an easily measured gene product as a stand-in for the process of interest.
Take GGACAGCUAACAUUGCCUATT against LPCAT2: the median seed-adjusted z-score was inactive: 0.
Turning to GAAGAUUGGUGAUCUAGGATT against WNK3, the median seed-adjusted z-score is inactive: -0.466.
In the case of CGAAGCACGUCAAGACUCATT against SP5 it was inactive: 0.105.
Next, GGCUGCAUUUGGUCUCGAATT against RGL1: inactive: 0.0217; CAGACUCACUUGUCACUCATT against SCMH1: inactive: -0.305; GCACUCCAGAGACGACUAATT against LMBR1: inactive: 0.236.
In the case of CGAGAGCUCCAGAUCAUGATT against GSK3B it was inactive: -0.952; in that of CCGUAGCUUUGAUGACGAATT against AKAP8, inactive: -0.252.
On to CCACCCUUCGAGAUCUUCUTT against IRF5, for which the median seed-adjusted z-score is inactive: -0.146.
In the case of GCAUCAUCGCGUCAUAGCATT against SMPDL3B it was inactive: 0.0704.
In the case of GAACUAUGAAUAAAGCUUUTT against HAGHL it was inactive: -0.334; in that of ACAUCGUCGCGUCUGCUCATT against TMEM147, inactive: 0.233; in that of GUACCACUCUAGCCCAAUATT against BMX, inactive: -0.00712.
In the case of CGACUUGCGAAAAAGGCUATT against MAGI2 it was inactive: -0.23; in that of CUGCUAGUCUGGUUCACGATT against PDSS1, inactive: -0.287; in that of CAAAGGUUGUCUGACACUATT against OBFC2B, inactive: -0.061.
In the case of GGAGUGCACGAGACAUUCATT against FAH, the median seed-adjusted z-score is inactive: -0.0836.
As to CAAAGAAAAUGUAACCAUUTT against LY9, the median seed-adjusted z-score was inactive: 0.228.
In the case of AGGAGAAUAUUAUAUGACATT against EFHA1 it was inactive: 0.0629.
In the case of GAGAAUGAGUUGCUGCAGATT against CORO2A it was inactive: 0; in that of CAGUUGCCCUUGUUCGGAATT against TSSK6, inactive: -0.408; in that of GCAUUGUAUCUCUUAUGUATT against FZD6, inactive: 0.312.
Regarding GGUUACAAGCGGUUUGGUATT against COLEC12, the median seed-adjusted z-score is active: -1.04.
In the case of GCCUGGAUUUCUUAGAUUATT against ORC5L it was inactive: -0.126; in that of GCAAUAUCAUUUCCUCCAATT against BRUNOL5, inactive: 0.333.
For UCAAGUACGUGCUAAUGAATT against CALML6, the median seed-adjusted z-score was inactive: 0.0119.
For the sequence GCACAAGAGUGAAGACCAUTT against CCR9, the median seed-adjusted z-score is inactive: 0.16.
GCCCUCGCGUCUUCAGAAATT against NOP56: the median seed-adjusted z-score is inactive: 0.307.
Next, CUACUUAGUUGAUUCGGGATT against MCCC2: inactive: -0.0566.
In the case of GAAGUUUACUCAACUGAGATT against RUVBL1 it was inactive: -0.834; in that of GCUCCAUCAUCGUUGCAUUTT against SYPL2, inactive: 0.233; in that of CACUGCUGAUGACCCGUUATT against ADCY4, inactive: -0.0551.
In the case of CAAGAUUCUUGAUACUGCATT against HMBS it was inactive: 0.422.
On to CAAUGAAAGUCCCAAAUGUTT against DHX33, for which the median seed-adjusted z-score is inactive: -0.689.
As to CCCUCUUCGACUUCAAACATT against MBD1, the median seed-adjusted z-score is inactive: 0.
In the case of GGAGAACUCUUUGCACCUATT against FHL3, the median seed-adjusted z-score is inactive: 0.105.
Next, GGCUACGAGCAAUACUAUATT against OSBPL3: inactive: 0.0159.
For GUAUAUCGGUGAACUGCUUTT against SLC27A2, the median seed-adjusted z-score was inactive: -0.647.
Regarding CAUCGUCAUCAGAAACUGATT against MKX, the median seed-adjusted z-score is inactive: 0.00623.
For the sequence CAACUUGAGCGAAAAUUCUTT against RSU1, the median seed-adjusted z-score was inactive: 0.176.
Next, GGAAACGAUUAUUACAACUTT against LRRK2: inactive: -0.671; CACUCCCUUAGGUCCCUUATT against ARID3B: inactive: -0.0846; GCCUCAAGGUUCACCUGAATT against PRDM1: inactive: -0.16.
In the case of AGACCUUCAUCGUACUCAATT against SCN4A it was inactive: -0.681; in that of CAAUCCUCUCCAAACAUAATT against ZNF253, inactive: 0.0237; in that of GGACUUUGGUUAUGUUGGATT against SNAP25, inactive: 0.
In the case of CUGUAGUUGUGGUAGCGAUTT against GBP5 it was inactive: -0.194; in that of CGAUUCUGGUUAUUGCAAATT against DHX38, inactive: -0.723.
Regarding GCCUAUAAGGACAAGAUAATT against CD200, the median seed-adjusted z-score was inactive: -0.0135.
In the case of GAAAUUGACUCGUUUCUUATT against PLCXD2 it was inactive: -0.0211; in that of GCUUUGACUUUCGAACAGATT against SRBD1, inactive: 0.169.
Consider CAAAAGUACUUGCAAAGAUTT against POLL, for which the median seed-adjusted z-score is inactive: -0.334.
For GGUGACCAUUCGUUUAUUATT against SC4MOL, the median seed-adjusted z-score is inactive: -0.0194.
As for GCUCUGACCUUAUUAAGCATT against ZNF75A, the median seed-adjusted z-score was inactive: 0.303.
As to CGAAUAUGAUGAAGAUGUUTT against PHF17, the median seed-adjusted z-score is active: 1.01.
GGUCUUUGAUGCGAAGUUATT against DOCK2: the median seed-adjusted z-score was inactive: 0.151.
In the case of CGGACGACAUUACCAUCGATT against NRXN2 it was inactive: -0.485; in that of GCACCAGGAUAUGUCUUAATT against YY1AP1, inactive: 0.0453.
Next, GCAUCCAAGUGAUUGAUCUTT against RSHL3: inactive: -0.407.
Next, CCACGGAUGGUGACAGUUATT against SLC6A11: inactive: -0.0369.
Take GCAUGUUAUCGAAGGGUUUTT against PHC2: the median seed-adjusted z-score was inactive: 0.177.
In the case of CAAUGAAUUUUUCCGAAGATT against ITGA10 it was inactive: 0.378; in that of AGCGCGUCAUGAUGACCUATT against PER1, inactive: 0.176.
Consider CGUCUGGACCGAAUCGGAATT against AVPR1A, for which the median seed-adjusted z-score is inactive: 0.
As to GUGUCGGUGUUCACGCUCATT against PRLHR, the median seed-adjusted z-score is inactive: 0.
In the case of ACACUGAUGGUGCAGUUAATT against S100A8 it was inactive: -0.337; in that of CGGUGAAAGGGAUUUAUAATT against CASP9, inactive: -0.0982.
Turning to GAGAUGUUGUGGUCGAUUUTT against ALPK1, the median seed-adjusted z-score was inactive: -0.0149.
Next, CGACAUUACAAGGCGUGAATT against RAB2B: inactive: 0.882.
Next, CAGAGUUACUUGGUAUAUUTT against XIRP2: inactive: -0.404; GAAAUUUGAUCUCAGUUAUTT against MFN1: inactive: 0.21; CCGACUACCUGAUGAAGAUTT against ACTA1: inactive: -0.103.
In the case of CACUCUAUGUCAACGUGAATT against EDEM1 it was inactive: -0.175.
Regarding CCAGUACCCUGAUGCUACATT against SPP1, the median seed-adjusted z-score was inactive: -0.293.
For GGAGUGAAGACUUCGAGAATT against KCNN2, the median seed-adjusted z-score is inactive: -0.0251.
For the sequence CACCUAUGAUCGCUCCAUUTT against RRAD, the median seed-adjusted z-score was inactive: -0.267.
Consider CCUAAGUUCUCAACAGUUATT against TESSP2, for which the median seed-adjusted z-score is inactive: 0.419.
In the case of GGAAAGGAAUGGUCACGAATT against ZNF321 it was inactive: -0.642.
In the case of GCAUUACCGGAAAAAGCGATT against MPZL2 it was inactive: -0.0172; in that of CGAUUACCAUCGCAGGUCATT against SH3BP1, inactive: -0.225; in that of GACCAGACUUUGUACCCUUTT against RNASEN, inactive: 0.524.
Next, CAGCGACUGUGGAAAAUCATT against ZNF484: inactive: 0.2; CAAACUACCUAUACGGCAATT against NPTX2: inactive: 0.0558; GGCAUUACUUGGACGACUATT against SLC4A11: inactive: -0.18.
As for GCACUACGAGCAACGAAUATT against USP13, the median seed-adjusted z-score was inactive: -0.044.
Next, GAAUUUAUCCCAAAGAAUATT against FOXN2: inactive: 0.0947; CAUGGUCACUGCUAGUGUATT against MBOAT1: active: -1.22; CUACACCACCUAUUCCAGATT against PARVG: inactive: 0.321.
Next, CGGGAUUGAUGGUUUAACUTT against COL9A2: inactive: 0.0208.
Next, AGAUCAAGCUCGACGGCUATT against EHD4: inactive: 0.333; GGAUACCUACGUGAUGAAATT against PCDH11X: inactive: -0.203; CGUGGUUGUUGUAAUCCAATT against PCDHGB1: inactive: -0.482.
Take AGAAUGUGCGGCUUAUUGATT against CCDC88B: the median seed-adjusted z-score was inactive: -0.153.
Turning to AGAUCCUCAAGUACAAGAUTT against RAB20, the median seed-adjusted z-score was inactive: -0.334.
As to GGUUGUAGCUGUAACUGGUTT against ATP2B1, the median seed-adjusted z-score is inactive: -0.459.
For the sequence AGAUCAAAGUUGGUCCAAATT against MASP1, the median seed-adjusted z-score is inactive: 0.653.
In the case of AAAUCUUCUUUCGACAACATT against RAB37, the median seed-adjusted z-score is inactive: 0.0678.
Turning to CCCAAUUACUCAGCAGGAATT against AHRR, the median seed-adjusted z-score was inactive: -0.636.
Next, GCCUGGAGGUAACUGCUUATT against AKR1A1: inactive: -0.255; CCCACUUACUGCACAACAATT against UGT1A1: inactive: -0.0283; CCCAAUCAAGUGUUACAAATT against JMJD1C: inactive: 0.0338.
In the case of GGAUGAAGACUUCGAUGAATT against CHD3 it was inactive: 0.589; in that of GAGAAGAAGUUCUUAAGGATT against ALKBH8, inactive: -0.487.
Next, CAGUAGAUGUGGAAAAGGATT against PTK2B: active: 1.71; AGGACAAGCUGAAAAUCCATT against ZBTB7C: inactive: 0.447; GGGACAAAAUUUCCGAAAATT against TSHZ2: inactive: -0.361.
In the case of GGACAUGUUCUACUCUUCATT against LRP5, the median seed-adjusted z-score is active: -1.

The record behind these values is PubChem BioAssay AID1347426 (Functional Genomics Laboratory (NCATS/FGL), 2020).
